Experimental data reported in publication PMC4673185.
No constants are given. Whether binding was seen depends on the method and setting. Binding seen in cells or lysates may run through a third protein. Some entries that bind do so weakly or less than the wild type.

Chains of the proteins cited; added tags and fusions are not shown.
UniProt Q07812: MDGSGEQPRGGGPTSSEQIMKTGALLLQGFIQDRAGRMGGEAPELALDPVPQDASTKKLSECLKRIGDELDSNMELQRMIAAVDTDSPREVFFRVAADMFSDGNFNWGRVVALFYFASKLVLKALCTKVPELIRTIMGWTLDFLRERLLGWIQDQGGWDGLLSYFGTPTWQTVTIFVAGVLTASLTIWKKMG
UniProt O00429: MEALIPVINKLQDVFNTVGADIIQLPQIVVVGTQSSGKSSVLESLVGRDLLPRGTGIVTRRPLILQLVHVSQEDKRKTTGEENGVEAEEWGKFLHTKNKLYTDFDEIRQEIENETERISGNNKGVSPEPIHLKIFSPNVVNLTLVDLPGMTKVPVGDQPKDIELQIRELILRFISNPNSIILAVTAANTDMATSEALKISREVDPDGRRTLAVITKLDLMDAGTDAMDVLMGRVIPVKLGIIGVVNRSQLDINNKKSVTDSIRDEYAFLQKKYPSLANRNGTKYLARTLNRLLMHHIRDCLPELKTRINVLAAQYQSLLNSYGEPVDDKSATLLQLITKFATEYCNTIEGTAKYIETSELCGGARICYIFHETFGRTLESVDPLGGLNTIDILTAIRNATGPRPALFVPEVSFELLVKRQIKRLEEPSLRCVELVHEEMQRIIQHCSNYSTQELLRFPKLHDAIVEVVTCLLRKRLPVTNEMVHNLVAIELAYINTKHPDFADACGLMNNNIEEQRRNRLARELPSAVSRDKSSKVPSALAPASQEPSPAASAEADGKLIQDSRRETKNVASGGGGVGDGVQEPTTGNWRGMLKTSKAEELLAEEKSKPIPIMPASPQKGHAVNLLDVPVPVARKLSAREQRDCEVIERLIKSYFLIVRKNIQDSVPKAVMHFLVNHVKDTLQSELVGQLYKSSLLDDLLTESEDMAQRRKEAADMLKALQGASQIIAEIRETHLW

Columns and labels:
[1] = target: Bax (human (endogenous in Su-DHL4)) (UniProt Q07812); assay: co-IP; Su-DHL4 cells treated with UV light for 5 min, incubated for 2 and 3 hours; proteins extracted with 1% CHAPS-containing buffer (10 mM Hepes, pH 7.4, 150 mM NaCl, 1 mM DTT); IP with anti-Bax 6A7 (active Bax); Western blotting with rabbit anti-Drp1 (H-300) and rabbit anti-Bax (N-20)
[2] = target: Bax (human (endogenous in Su-DHL4)) (UniProt Q07812); assay: co-IP; untreated (resting) Su-DHL4 cells; proteins extracted with CelLytic M cell Lysis Reagent; 500 ug proteins; Dynabeads protein A coated with 5 ug rabbit anti-Bax (N-20) or rabbit anti-Drp1 (H-300); 1 hour at room temperature; Western blotting with mouse anti-Bax (2D2) or mouse anti-Drp1 (6Z-82)
[3] = target: Dynamin-related protein Drp1 (human (endogenous in Su-DHL4)) (UniProt O00429); assay: as above

Row | binding [1] | binding [2] | binding [3] | Substance
1 | binds | binds | – | Dynamin-related protein Drp1 (from UniProt O00429 1-736)
2 | – | – | binds | Bax (from UniProt Q07812 1-192)
